{"source": "PubChem BioAssay AID1347423", "about": "(Functional Genomics Laboratory (NCATS/FGL), 2020)", "note": "In all, about 52,000 sequences went through this assay and about 210 (0.4%) were called active.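 How the source made its calls: active means gene whose silencing raises cell survival under the drug, median off-target-corrected z-score across its silencing RNAs 2 or more; inactive means the rest.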 This is one part of the list."}
{"assay": "Resistance to Poly (ADP-Ribose) Polymerase inhibitor: Gene Identification via Genome-wide siRNA Screen", "conditions": "mouse BRCA2 R2336H ES cells, olaparib, CellTiter-Glo viability; hits give high values", "outline": "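Genome-wide siRNA screen (3 siRNAs/gene, 20 nM) in mouse ES cells carrying hypomorphic BRCA2 R2336H; olaparib 500 nM added 48 h post-transfection, CellTiter-Glo viability 72 h later. Normalized to plate-median negative control; MAD z-scores, gene median, seed-adjusted.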"}
{"sequence": "CCAAGAAAAGUCCAGAAGCTT against Rorb", "z-score": "inactive: 0.68"}
{"sequence": "GGACAUCAUCCAGGAAAACTT against Bcar3", "z-score": "inactive: -1.98"}
{"sequence": "GGGCAAAAGUUUAGAAAUCTT against AI467503", "z-score": "inactive: 0.482"}
{"sequence": "GCUUCUGAUUGAGAGUUCATT against D830044D21Rik", "z-score": "inactive: 0.542"}
{"sequence": "GGAUAUCAUGGACACUCAUTT against Apg16l", "z-score": "inactive: -2.53"}
{"sequence": "GGUGCUGACUGCUUUUGGATT against Hbb-y", "z-score": "inactive: -0.265"}
{"sequence": "GGAAUCAUCUUUGUGGAGATT against 0610006K04Rik", "z-score": "inactive: 0.623"}
{"sequence": "GCCCUAUCUACCAUAACACTT against Dok3", "z-score": "inactive: -1.43"}
{"sequence": "GGAAGAAAAGGCUUCUCUUTT against Ube3c", "z-score": "inactive: -0.853"}
{"sequence": "GCUGUGAUCAGGACGAGAATT against Epim", "z-score": "inactive: -0.712"}
{"sequence": "CCUAUUAUACUGAUCUCGGTT against LOC432436", "z-score": "inactive: 0.947"}
{"sequence": "GCCAAAUCAUGGGUCUGGUTT against Npas3", "z-score": "inactive: 0.238"}
{"sequence": "GGAAAAAUGACUGAUCUCUTT against Unc5c", "z-score": "inactive: -0.149"}
{"sequence": "GGCAUUCGAAGGGUCUACATT against Kcna7", "z-score": "inactive: -2.93"}
{"sequence": "GGUUAUCCCAACUACCAGCTT against Timm17b", "z-score": "inactive: 0.448"}
{"sequence": "GGGCCUUAAAUUCCUAACCTT against 9530002K18Rik", "z-score": "inactive: 0.892"}
{"sequence": "GGCUCCUAAAAAGUUUGCATT against 5330401P04Rik", "z-score": "inactive: -0.356"}
{"sequence": "GCUUCAGAAGCUUAAUAGCTT against Cited1", "z-score": "inactive: 0.867"}
{"sequence": "GGCUUAGAGAAACUCUAGATT against Btbd14b", "z-score": "inactive: -0.27"}
{"sequence": "GGGACCAGAUCAAGACACUTT against Apxl", "z-score": "inactive: 0.899"}
{"sequence": "GCUCAAAUGUUCUAAAAGCTT against Acmsd", "z-score": "inactive: 0.495"}
{"sequence": "GGACAGUUGACCUAGCAUATT against 9330155M09Rik", "z-score": "inactive: 0.421"}
{"sequence": "GCUAGACCGAAGAAUCCUGTT against Spatc1", "z-score": "inactive: -0.0515"}
{"sequence": "GCAAGCAAGGAAAAAGCUATT against Glis3", "z-score": "inactive: -0.53"}
{"sequence": "GGACUACGCCGACUUUGUCTT against Cog2", "z-score": "inactive: 1.34"}
{"sequence": "GACUGCUGUUUAGGAAUCGTT against Trip3", "z-score": "inactive: 0.166"}
{"sequence": "GGUGGUCCAGACCAAGUACTT against Pfdn5", "z-score": "inactive: -1.39"}
{"sequence": "CCAAGCGAAUGCUGGACAUTT against Cox4i1", "z-score": "inactive: -0.312"}
{"sequence": "GCUACAAGUACUGGUUUCUTT against Pcnxl3", "z-score": "inactive: -0.326"}
{"sequence": "GCAAAUGAUACAGUGGAUUTT against Catns", "z-score": "inactive: 1.35"}
{"sequence": "GGCAUUCCCAGUCGUAAAGTT against Kctd3", "z-score": "inactive: 0.758"}
{"sequence": "GGAGCCGACUUCUUAUUCGTT against Mastl", "z-score": "inactive: 0.572"}
{"sequence": "GGUACUAAGCACAAGACAATT against Zfp385", "z-score": "inactive: 0.16"}
{"sequence": "CCUUCUACCUACUUAUUGGTT against Tomm70a", "z-score": "inactive: 1.18"}
{"sequence": "GGAUGGUGAUUUGUUUCCUTT against Morf4l2", "z-score": "inactive: 0.157"}
{"sequence": "GGACAGCUACAGGAAAAUGTT against Tjp1", "z-score": "inactive: -0.488"}
{"sequence": "GCUAGAGCUCACCAAAUAATT against BC030396", "z-score": "inactive: -2.48"}
{"sequence": "GGAAGGUGCUAAAAAUAUATT against Pdhx", "z-score": "inactive: 0.573"}
{"sequence": "GGGUACAAUAUCCUUAAGUTT against D430033A06Rik", "z-score": "inactive: -0.51"}
{"sequence": "GGAGAGAGGACAACUUCUCTT against A530065E19Rik", "z-score": "inactive: 0.329"}
{"sequence": "GCCACGAAAAGAAGAGAAUTT against Vpreb2", "z-score": "inactive: 0.187"}
{"sequence": "GGAAAAAACCACGAUUGAGTT against Pecam1", "z-score": "inactive: 2.01"}
{"sequence": "GGAUGGCUAUCUUGUAAUUTT against AF397014", "z-score": "inactive: -0.555"}
{"sequence": "GGUAUUCGUUUCAUCUACATT against Hnrph1", "z-score": "inactive: 1.12"}
{"sequence": "GGAAAUCAGAUUCCUUAAATT against AW061290", "z-score": "inactive: 0.311"}
{"sequence": "GGCUUUGCUUUUUCUGUAUTT against Ppif", "z-score": "inactive: 0.935"}
{"sequence": "CCAAUUACGAGACUCUCAUTT against A730012O14Rik", "z-score": "inactive: -0.329"}
{"sequence": "GCUGAGAGAAAGGUUCACATT against Tube1", "z-score": "inactive: -1.3"}
{"sequence": "GGCUCAGAAACUAUUGAUATT against Rpgr", "z-score": "inactive: 1.09"}
{"sequence": "GGAAACAAAAGGAUUUCUGTT against Fbxl13", "z-score": "inactive: -0.0834"}
{"sequence": "GCUCAGAUGUAUAGACUCATT against Ap2a2", "z-score": "inactive: -1.03"}
{"sequence": "CGCAUUAGAGAGAUGAACATT against Centb2", "z-score": "inactive: -0.277"}
